In US20170182119A1:
No constants are given. Whether binding was seen depends on the method and setting. Binding seen in cells or lysates may run through a third protein. Some binding calls cover weakened binding; strength is not graded here. Each block holds one substance with its values, some of them ahead of it.

By UniProt entry, the sequences of proteins in these tests, tags left out. Where a name states a change or a piece, a line headed by the entry shows the natural chain unless it says otherwise.
UniProt Q8MIP0: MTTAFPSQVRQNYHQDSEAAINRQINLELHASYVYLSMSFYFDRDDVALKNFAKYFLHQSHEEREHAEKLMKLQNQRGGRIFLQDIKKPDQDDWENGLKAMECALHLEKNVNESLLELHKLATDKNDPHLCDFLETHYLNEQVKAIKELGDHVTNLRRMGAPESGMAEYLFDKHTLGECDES
UniProt P02791: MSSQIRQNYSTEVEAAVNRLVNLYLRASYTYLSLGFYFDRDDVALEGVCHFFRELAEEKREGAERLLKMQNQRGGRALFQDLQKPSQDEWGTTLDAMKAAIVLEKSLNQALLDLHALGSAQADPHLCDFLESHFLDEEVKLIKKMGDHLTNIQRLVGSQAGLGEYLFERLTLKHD
UniProt Q13772: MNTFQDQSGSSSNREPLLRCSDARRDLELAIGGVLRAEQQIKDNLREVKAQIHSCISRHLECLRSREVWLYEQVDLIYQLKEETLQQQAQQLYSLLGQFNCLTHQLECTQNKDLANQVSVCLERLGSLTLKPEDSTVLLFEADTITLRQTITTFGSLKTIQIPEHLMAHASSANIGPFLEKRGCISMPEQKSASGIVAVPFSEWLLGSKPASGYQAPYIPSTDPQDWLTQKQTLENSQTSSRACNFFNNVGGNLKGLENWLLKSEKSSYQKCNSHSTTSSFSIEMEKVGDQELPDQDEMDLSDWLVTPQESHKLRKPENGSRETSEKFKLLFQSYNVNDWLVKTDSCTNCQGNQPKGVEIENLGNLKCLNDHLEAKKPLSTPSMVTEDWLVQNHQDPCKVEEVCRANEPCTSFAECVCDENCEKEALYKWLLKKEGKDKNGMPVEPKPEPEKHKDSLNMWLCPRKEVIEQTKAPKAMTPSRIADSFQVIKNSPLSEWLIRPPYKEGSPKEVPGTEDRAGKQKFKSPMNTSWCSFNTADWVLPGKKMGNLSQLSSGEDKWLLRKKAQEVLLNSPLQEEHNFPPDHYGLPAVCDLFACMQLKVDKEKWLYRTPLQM

Key:
[1] = target: T1, ferritin purified from horse spleen (mixture of FTH1 and FTL subunits) (horse) (UniProt Q8MIP0+P02791); test: GST pull-down with in vitro translated C-terminal His-GST-HA tagged NCOA4 constructs, FTH1 immunoblot
[2] = target: T1, ferritin purified from horse spleen (mixture of FTH1 and FTL subunits) (horse); test: GST pull-down of ferritin with bead-bound GST-NCOA4 fragments, FTH1 immunoblot
[3] = target: T1, ferritin purified from horse spleen (mixture of FTH1 and FTL subunits) (horse); test: GST pull-down of equine spleen ferritin with bead-bound GST-NCOA4 fragments, FTH1 immunoblot
GST-GABARAPL2 (human) = test: GST pull-down of NCOA4-HA-FLAG from 293T lysate with GST-ATG8 proteins, HA immunoblot

binding [1]: binds
Substance: NCOA4 aa 475-522, C-terminal His-GST-HA tagged (in vitro translated) (from UniProt Q13772 475-522)

binding [2]: binds
Substance: GST-NCOA4 aa 383-522 (from UniProt Q13772 383-522)

binding [3]: binds
Substance: GST-NCOA4 C-terminus (aa 235-614) (from UniProt Q13772 235-614)

binding [3]: binds
Substance: GST-NCOA4 aa 383-560 (from UniProt Q13772 383-560)

binding [1]: binds
Substance: NCOA4 aa 383-522, C-terminal His-GST-HA tagged (in vitro translated) (from UniProt Q13772 383-522)

binding (GST-GABARAPL2 (human)): binds
Substance: NCOA4-HA-FLAG (from UniProt Q13772 1-614)

binding [3]: binds
Substance: GST-NCOA4 aa 235-560 (from UniProt Q13772 235-560)

binding [2]: binds
Substance: GST-NCOA4 aa 475-522 (from UniProt Q13772 475-522)
